PubChem BioAssay AID652243 | Drosophila RNAi Screening Center | 2013

Purpose: 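Fly genes required for human androgen receptor driven transcription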 (primary screen)
System: Drosophila S2R+ cells
Knock-down reagent: long dsRNA against Drosophila genes
Duration: 72 h (48 h, then 24 h hormone)
Challenge: synthetic androgen R1881 at 10 nM for 24 h
Measurement: 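Firefly light from an androgen-responsive reporter and Renilla control light per well, raw and unnormalised, for each of two replicates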
Scale: firefly reporter light: higher = more light from androgen-responsive reporter; Renilla control light: higher = more constitutive control signal (cell number, transfection)
Hit rule: 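Hit when the log firefly-to-Renilla ratio dropped or increased by a fixed fold versus the mean of GFP or LacZ controls across duplicate plates; lowering cut given as 1.5 and as 3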
Calls: active = hit: reporter lowered or raised; inactive = no hit
The deposit covers about 24,000 reagents; this is a random part of those with a known target gene and a result. Of all reagents, 246 (1%) were called active. 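Plates not normalised; calls are printed but the firefly/Renilla ratio behind them is not deposited; fold cut for lowering reported inconsistently.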 Raw values are not corrected between plates. A plus sign joins genes that one reagent is predicted to hit. Not given: the amount of reagent.

Depletion of p115 [DRSC18813] resulted in: firefly reporter light, replicate 1 = 2.68e5; firefly reporter light, replicate 2 = 2.69e5; Renilla control light, replicate 1 = 2.34e6; Renilla control light, replicate 2 = 3.28e6; inactive.
With knock-down of osi (orsai) [DRSC02931], the record shows firefly reporter light, replicate 1 = 3.80e5; firefly reporter light, replicate 2 = 3.52e5; Renilla control light, replicate 1 = 1.99e6; Renilla control light, replicate 2 = 1.75e6; inactive.
With knock-down of Osi10b (Osiris 10b) [DRSC12279] the results were firefly reporter light, replicate 1 = 1.04e5; firefly reporter light, replicate 2 = 1.46e5; Renilla control light, replicate 1 = 2.21e6; Renilla control light, replicate 2 = 2.08e6; inactive.
For indra [DRSC08558], the entry reads firefly reporter light, replicate 1 = 1.31e6; firefly reporter light, replicate 2 = 1.27e6; Renilla control light, replicate 1 = 1.58e6; Renilla control light, replicate 2 = 1.58e6; inactive.
Against indra [DRSC26845], the values are firefly reporter light, replicate 1 = 5.37e5; firefly reporter light, replicate 2 = 4.70e5; Renilla control light, replicate 1 = 1.16e6; Renilla control light, replicate 2 = 9.80e5; inactive.
After knock-down of vex (vexed) [DRSC19481] the results were firefly reporter light, replicate 1 = 3.90e5; firefly reporter light, replicate 2 = 4.33e5; Renilla control light, replicate 1 = 3.20e6; Renilla control light, replicate 2 = 3.01e6; inactive.
After knock-down of vex (vexed) [DRSC19651], the screen gave firefly reporter light, replicate 1 = 5.47e5; firefly reporter light, replicate 2 = 4.96e5; Renilla control light, replicate 1 = 3.14e6; Renilla control light, replicate 2 = 2.84e6; inactive.
Depletion of vex (vexed) [DRSC21843] gave: firefly reporter light, replicate 1 = 5.39e5; firefly reporter light, replicate 2 = 5.18e5; Renilla control light, replicate 1 = 1.01e6; Renilla control light, replicate 2 = 1.07e6; inactive.
vex (vexed) [DRSC25475] showed firefly reporter light, replicate 1 = 8.58e5; firefly reporter light, replicate 2 = 7.31e5; Renilla control light, replicate 1 = 1.33e6; Renilla control light, replicate 2 = 1.19e6; inactive.
Knock-down of CG18518 [DRSC01509] came out at: firefly reporter light, replicate 1 = 2.35e5; firefly reporter light, replicate 2 = 3.03e5; Renilla control light, replicate 1 = 5.72e5; Renilla control light, replicate 2 = 6.10e5; inactive.
Knock-down of CG6966 [DRSC16156] resulted in: firefly reporter light, replicate 1 = 96531; firefly reporter light, replicate 2 = 80808; Renilla control light, replicate 1 = 1.63e6; Renilla control light, replicate 2 = 1.68e6; inactive.
For CG6966 [DRSC24518], the values are firefly reporter light, replicate 1 = 5.52e5; firefly reporter light, replicate 2 = 5.98e5; Renilla control light, replicate 1 = 5.54e5; Renilla control light, replicate 2 = 1.02e6; inactive.
For CG14453 [DRSC11710], the entry reads firefly reporter light, replicate 1 = 6.93e5; firefly reporter light, replicate 2 = 6.98e5; Renilla control light, replicate 1 = 1.84e6; Renilla control light, replicate 2 = 2.27e6; inactive.
Knock-down of CG14453 [DRSC23780] came out at: firefly reporter light, replicate 1 = 7.78e5; firefly reporter light, replicate 2 = 7.72e5; Renilla control light, replicate 1 = 9.91e5; Renilla control light, replicate 2 = 8.40e5; inactive.
Silencing of CG7140 [DRSC11799] gave: firefly reporter light, replicate 1 = 1.91e5; firefly reporter light, replicate 2 = 1.18e5; Renilla control light, replicate 1 = 1.54e6; Renilla control light, replicate 2 = 1.80e6; inactive.
Against CG42662 + CG30080 [DRSC05571] the deposit lists firefly reporter light, replicate 1 = 1.51e5; firefly reporter light, replicate 2 = 2.70e5; Renilla control light, replicate 1 = 3.24e5; Renilla control light, replicate 2 = 3.82e5; inactive.
For OdsH (Ods-site homeobox) [DRSC20263], the entry reads firefly reporter light, replicate 1 = 5.46e5; firefly reporter light, replicate 2 = 4.40e5; Renilla control light, replicate 1 = 3.56e6; Renilla control light, replicate 2 = 3.11e6; inactive.
For Scamp [DRSC20286], the values are firefly reporter light, replicate 1 = 2.83e5; firefly reporter light, replicate 2 = 4.28e5; Renilla control light, replicate 1 = 3.27e6; Renilla control light, replicate 2 = 3.83e6; inactive.
For Scamp [DRSC29752], the values are firefly reporter light, replicate 1 = 4.16e5; firefly reporter light, replicate 2 = 3.90e5; Renilla control light, replicate 1 = 6.88e5; Renilla control light, replicate 2 = 1.05e6; inactive.
Silencing of spag4 (sperm-associated antigen 4) [DRSC02973] resulted in: firefly reporter light, replicate 1 = 1.78e5; firefly reporter light, replicate 2 = 1.83e5; Renilla control light, replicate 1 = 1.34e6; Renilla control light, replicate 2 = 1.71e6; inactive.
After knock-down of Mal-A2 (Maltase A2) [DRSC07460] the results were firefly reporter light, replicate 1 = 3.78e5; firefly reporter light, replicate 2 = 5.41e5; Renilla control light, replicate 1 = 2.44e6; Renilla control light, replicate 2 = 1.99e6; inactive.

Entries listed so far whose gene name begins with V or v (4):
vex (vexed) [DRSC19481] — firefly reporter light, replicate 1 = 3.90e5; firefly reporter light, replicate 2 = 4.33e5; Renilla control light, replicate 1 = 3.20e6; Renilla control light, replicate 2 = 3.01e6; activity call = inactive
vex (vexed) [DRSC19651] — firefly reporter light, replicate 1 = 5.47e5; firefly reporter light, replicate 2 = 4.96e5; Renilla control light, replicate 1 = 3.14e6; Renilla control light, replicate 2 = 2.84e6; activity call = inactive
vex (vexed) [DRSC21843] — firefly reporter light, replicate 1 = 5.39e5; firefly reporter light, replicate 2 = 5.18e5; Renilla control light, replicate 1 = 1.01e6; Renilla control light, replicate 2 = 1.07e6; activity call = inactive
vex (vexed) [DRSC25475] — firefly reporter light, replicate 1 = 8.58e5; firefly reporter light, replicate 2 = 7.31e5; Renilla control light, replicate 1 = 1.33e6; Renilla control light, replicate 2 = 1.19e6; activity call = inactive
